According to the supplement of paper PMC12823440, “Inhibitors supercharge kinase turnover through native proteolytic circuits” (Nature, 2025):
Counter-ions that a name gives are not always drawn. This is one part of the list. The calls rarely recur for the same compound in another form.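 Kinases were expressed as nanoluciferase fusions in K562 cells and luminescence was read every 4 h between 2 and 18 h as percent of control, DMSO set to 100% and a positive control to 0%. A time point counts as decreased when the signal drops significantly (2 sigma). The hit call is the authors' own, does not follow from the count of time points alone, and its rule is not shown.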

By UniProt entry, the sequences of proteins in these tests, tags left out.
UniProt P07947, whole entry, looked up: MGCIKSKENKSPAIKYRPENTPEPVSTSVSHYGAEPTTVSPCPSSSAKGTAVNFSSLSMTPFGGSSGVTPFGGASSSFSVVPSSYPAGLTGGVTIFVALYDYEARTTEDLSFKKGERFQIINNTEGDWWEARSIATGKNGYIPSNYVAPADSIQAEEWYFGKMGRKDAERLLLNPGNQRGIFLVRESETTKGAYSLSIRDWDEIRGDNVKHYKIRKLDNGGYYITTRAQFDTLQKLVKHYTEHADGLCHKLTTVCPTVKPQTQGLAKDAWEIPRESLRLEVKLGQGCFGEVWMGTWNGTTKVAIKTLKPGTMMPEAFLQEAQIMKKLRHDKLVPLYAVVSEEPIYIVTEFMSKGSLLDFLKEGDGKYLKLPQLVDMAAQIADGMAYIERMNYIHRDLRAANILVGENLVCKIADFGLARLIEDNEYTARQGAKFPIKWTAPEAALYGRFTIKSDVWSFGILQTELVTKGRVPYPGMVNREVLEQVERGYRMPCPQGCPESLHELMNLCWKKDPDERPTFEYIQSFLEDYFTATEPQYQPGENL

The compounds below were run against YES1 (UniProt P07947) (assay: number of time points (of 5) at which kinase-Nluc abundance scored as decreased, DMSO-normalised (count); higher = more persistent destabilization). Details: K562; 2-18 h.

| Structure (SMILES) | number of time points |
| --- | --- |
| O=c1c(O)c(-c2ccc(O)c(O)c2)oc2cc(O)cc(O)c12 [Quercetin (dihydrate)] (10 µM) | 0 |
| Cc1c(C(=O)N2CCOc3ccc(-c4ccc(N)nc4)cc3C2)ccc(S(C)(=O)=O)c1F (10 µM) | 0 |
| Cc1cc(CS(=O)(=O)c2ccccc2)cc(OCc2ccc(CN3CCC[C@@H]3CO)cc2)c1 [PF-543 (Citrate)] (10 µM) | 0 |
| N#CC(=Cc1ccc(O)c(O)c1)C(=O)NCc1ccccc1 (mixture of isomers) (10 µM) | 0 |
| COc1cc(C(=O)NC2CCN(C)CC2)c(F)cc1Nc1ncc2c(n1)N(C1CCCC1)CC(F)(F)C(=O)N2C [TAK-960 (dihydrochloride)] (2.5 µM) | 0 |
| CCCCC[C@H](O)CC(=O)CCc1ccc(O)c(OC)c1 [[6]-Gingerol] (10 µM) | 0 |
| COc1cc2ncnc(Nc3cccc(O)c3)c2cc1OC (10 µM) | 1 |
| C[C@H](NC(=O)/C(C#N)=C/c1cccc(Br)n1)c1ccccc1 (2.5 µM) | 0 |
| C[C@H](CN(C)C)Oc1nc(Nc2cc3cccc(Cl)c3cn2)cnc1C#N (10 µM) | 0 |
| COc1cc2c(Nc3ccc(NC(=O)c4ccccc4)cc3)ncnc2cc1OCCCN1CCOCC1 (10 µM) | 0 |
| Cc1ncc(-c2ccnc(Nc3ccc(S(C)(=O)=O)cc3)n2)n1C(C)C (2.5 µM) | 0 |
| COc1cc2ncnc(Nc3cccc(Cl)c3F)c2cc1OC(=O)N1CCN(C)C[C@H]1C [Zorifertinib] (10 µM) | 0 |
| CC(C)(C)c1cc(NC(=O)Nc2ccc(-c3cn4c(n3)sc3cc(OCCN5CCOCC5)ccc34)cc2)no1 [Quizartinib] (10 µM) | 0 |
| CC(C)c1ccc2oc3nc(N)c(C(=O)O)cc3c(=O)c2c1 [Amlexanox] (10 µM) | 0 |
| Cc1ccc(NC(=O)c2cccc(N(C)C)c2)cc1NC(=O)c1ccc(O)cc1 (10 µM) | 0 |
| C=CC(=O)N1CC[C@H](n2nc(C#Cc3cc(OC)cc(OC)c3)c3c(N)ncnc32)C1 [Futibatinib] (10 µM) | 0 |

| Structure (SMILES) | number of time points |
| --- | --- |
| CNC(=O)c1cc(Oc2ccc(NC(=O)Nc3cc(C(C)(C)C)nn3-c3ccc4ncccc4c3)c(F)c2)ccn1 [Rebastinib] (2.5 µM) | 3 |
| COc1nccc(-c2c(-c3ccc(F)cc3)ncn2C2CCC(O)CC2)n1 (configuration not stated) (10 µM) | 0 |
| O=c1c(-c2ccc(O)cc2)coc2cc(O)cc(O)c12 [Genistein] (10 µM) | 0 |
| CC#CC(=O)N[C@H]1CCCN(c2c(F)cc(C(N)=O)c3[nH]c(C)c(C)c23)C1 [Branebrutinib] (10 µM) | 0 |
| CCn1c(=O)c2cc(C(N)=O)c(N)nc2n(C2CC2)c1=O (10 µM) | 0 |
| COc1cc(F)cc([C@@H](CO)NC(=O)[C@@H](C)N2Cc3ccc(-c4nc(NC5CCOCC5)ncc4Cl)cc3C2=O)c1 [ERK1/2 inhibitor 2] (10 µM) | 0 |
| Cc1ccc2c(Nc3ccc(Cl)cc3)nccc2c1Nc1ncccc1-c1ncnc2nc[nH]c12 [Raf inhibitor 1] (2.5 µM) | 0 |
| CCCCNc1ncc(-c2ccc(CN3CCOCC3)cn2)c(NC2CCC(O)CC2)n1 (configuration not stated) (10 µM) | 0 |
| CC(C)=CC/C=C(\C)[C@H]1CC[C@]2(C)[C@@H]1[C@H](O)C[C@@H]1[C@@]3(C)CC[C@H](O[C@@H]4O[C@H](CO)[C@@H](O)[C@H](O)[C@H]4O[C@@H]4O[C@H](CO)[C@@H](O)[C@H](O)[C@H]4O)C(C)(C)[C@@H]3CC[C@]12C [Ginsenoside Rg5] (10 µM) | 0 |
| N#Cc1ccc2[nH]c(O)c(-c3ccc(CN4CCOCC4)cn3)c2c1 (10 µM) | 0 |
| Oc1cc(O)cc(/C=C/c2ccc(O)c(O)c2)c1 [Piceatannol] (10 µM) | 2 |
| CC(C)(C)S(=O)(=O)c1cc2c(Nc3ccc4scnc4c3)ncnc2cc1OCCO (2.5 µM) | 0 |
| COc1c(Cl)cc2c([nH]c3cnccc32)c1NC(=O)c1cccnc1C (10 µM) | 0 |
| CC(C)C(=O)Nc1ncc(-c2cc(C(F)F)nn2-c2c(Cl)cccc2Cl)s1 (10 µM) | 0 |
| COc1cc2nc(C)nc(N[C@H](C)c3cc(N)cc(C(F)(F)F)c3)c2cc1O[C@H]1CCOC1 (10 µM) | 0 |
| COc1cc(OC)c(F)c(COc2cnc(Nc3cnn(CCO)c3)nc2)c1F (2.5 µM) | 0 |

Retrieved one by one from the list above, three records:

| Structure (SMILES) | number of time points |
| --- | --- |
| Oc1cc(O)cc(/C=C/c2ccc(O)c(O)c2)c1 [Piceatannol] (10 µM) | 2 |
| COc1nccc(-c2c(-c3ccc(F)cc3)ncn2C2CCC(O)CC2)n1 (configuration not stated) (10 µM) | 0 |
| COc1c(Cl)cc2c([nH]c3cnccc32)c1NC(=O)c1cccnc1C (10 µM) | 0 |
